No constants are given. Whether binding was seen depends on the method and setting. For some assays here: In cells and extracts the contact can be indirect. Some results given as binding are weak or reduced against the parent protein; the word gives no strength.

Amino acid sequences for entries named in this document (tags omitted).
UniProt P26599: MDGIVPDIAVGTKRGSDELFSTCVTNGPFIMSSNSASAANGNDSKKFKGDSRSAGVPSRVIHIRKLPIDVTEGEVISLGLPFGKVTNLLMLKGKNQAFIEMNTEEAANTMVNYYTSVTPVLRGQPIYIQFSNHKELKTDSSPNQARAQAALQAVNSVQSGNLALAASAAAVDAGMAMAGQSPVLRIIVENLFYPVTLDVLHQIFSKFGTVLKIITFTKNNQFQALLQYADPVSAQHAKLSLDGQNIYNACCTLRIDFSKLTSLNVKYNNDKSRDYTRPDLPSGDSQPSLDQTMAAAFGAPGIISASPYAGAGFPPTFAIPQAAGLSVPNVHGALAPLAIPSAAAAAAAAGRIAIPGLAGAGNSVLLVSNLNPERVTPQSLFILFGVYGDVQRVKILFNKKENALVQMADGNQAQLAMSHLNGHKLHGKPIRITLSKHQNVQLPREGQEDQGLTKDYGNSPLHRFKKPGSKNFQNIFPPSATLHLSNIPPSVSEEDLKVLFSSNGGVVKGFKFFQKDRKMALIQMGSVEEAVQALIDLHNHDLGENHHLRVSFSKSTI

The results in this text go back to publication PMC10244698, “Polypyrimidine tract binding protein 1 (PTBP1) contains a novel regulatory sequence, the rBH3, that binds the prosurvival protein MCL1” (The Journal of Biological Chemistry, 2023).

Assay [1] has as its target Polypyrimidine tract binding protein 1 (PTBP1), endogenous (human (endogenous in MDA-MB-468)) (UniProt P26599). The assay can be described thus: co-IP; 25 ug recombinant MCL1 added to MDA-MB-468 lysate (1 mg protein); endogenous PTBP1 captured with anti-PTBP1 antibody and magnetic beads; Western blot for MCL1; only the binder purified. A general note: A western blot detects proteins with antibodies after separation by electrophoresis.

In assay [2] the target is T1, FITC-labeled peptide containing the RRM1 rBH3 sequence (human).
T1 sequence (peptide, FITC-Ahx on the N-terminus): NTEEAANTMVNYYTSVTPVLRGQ
The assay can be described thus: condition: only with pharmacologic inhibition of the MCL1-binding groove; fluorescence polarisation; direct FPA of F-RRM1_(rBH3) peptide and MCL1 with pharmacologic inhibition of the MCL1-binding groove (Fig. S1); both purified. In general terms: In fluorescence polarisation assays a small probe gives low polarisation when free and higher when bound to something large.

B1: myeloid cell leukemia-1 (MCL1), residues 163-326 (domain or fragment, human, UniProt Q07820 163-326, looked up)
chain: TPPPAEEEEDELYRQSLEIISRYLREQATGAKDTKPMGRSGATSRKALETLRRVGDGVQRNHETAFQGMLRKLDIKNEDDVKSLSRVMIHVFSDGVTNWGRIVTLISFGAFVAKHLKTINQESCIEPLAESITDVLVRTKRDWLVKQRGWDGFVEFFHVEDLEG
notes: human MCL1, UniProt Q07820, residues 163-326, cloned into pET28a; also called recombinant MCL1; source: E. coli BL21 (DE3), purified (nickel chromatography, gel filtration)
Consider B1, for which the binding result in assay [1] is “binds”; in assay [2], “no binding”.
